The source of these data is the supplement of paper PMC8256030.

Where “and” joins values, the source holds several entries; their conditions need not be identical. Equal values may be shown once. The list shows a part of the results. Repeats in this data set agree poorly, so a single value says little.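 HEK293T cells were given each compound shortly before transfection with a reporter in which red mCherry is followed by the SARS-CoV-2 frameshift element and then GFP in the −1 frame, so GFP appears only after frameshifting.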

For this assay, the system named is HEK293T. As to the kind of experiment: percent viability (nuclei count) relative to control; higher = more viable cells. The settings on record: 10 µM; 24 h.
`C[C@@H]1C[C@H]2[C@@H]3C[C@H](F)C4=CC(=O)C(Cl)=C[C@]4(C)[C@@]3(F)[C@@H](O)C[C@]2(C)[C@@]1(O)C(=O)CO` [halometasone]: the percent viability came out at 153%.

`CC(C)(Oc1ccccc1)C(=O)OCCN1CCOCC1` [promolate]: the percent viability came to 278%.

For the compound `CCC(C)(C)c1ccc(OCCCCCCN2CCN(c3ccc(C)c(Cl)c3)CC2)cc1` [teroxalene], the percent viability came to 123%.

Regarding `OC(CCCN1CCc2c(c3cc(F)ccc3n2-c2ccc(F)cc2)C1)c1ccc(F)cc1` (stereo unspecified) [flutroline], the percent viability stood at 146%.

As for `CC(C)[C@H](N)C(=O)OCCOCn1cnc2c(=O)nc(N)[nH]c21`, the percent viability was 130%.

Consider `CC(COc1ccccc1)N(CCCl)Cc1ccccc1` (stereo unspecified) [phenoxybenzamine], for which the percent viability is 259% and 321%.
